These are yes or no findings as the source states them, for the method shown. In cells and extracts the contact can be indirect. Some binding calls cover weakened binding; strength is not graded here.

In the test the target is HIF-2αOH WT peptide (523-542), synthetically hydroxylated (human). Briefly: pull-down; biotinylated peptide on streptavidin agarose incubated with HIS6-PHD2 (αKG, ascorbate, FeCl2) for 1 h at room temperature, washed, then IVTT HA-VHL30 under stringent buffer conditions; anti-HA blot; only the target purified.

As to “HA-VHL30, in vitro transcribed and translated (IVTT) pVHL (from UniProt P40337-1 1-213)”, the binding entry is on record as “binds”.

The values are drawn from paper PMC6105673.
